In paper doi:10.1101/2024.04.15.589676:
No constants are given. Whether binding was seen depends on the method and setting. Binding seen in cells or lysates may run through a third protein. Some entries that bind do so weakly or less than the wild type. Where a sequence is shown, tags or fusion partners need not be part of it.

Tests used:
[1] = target: SARS-CoV-2 NSP3 (Gluc2-tagged) (SARS-CoV-2) (UniProt P0DTD1); assay: split reporter
[2] = target: SARS-CoV-2 nonstructural protein 6 (Gluc2-tagged) (SARS-CoV-2) (UniProt P0DTD1); assay: split reporter

B1: Gluc1-PIP4K2C (enzyme, UniProt Q8TBX8 1-421)
chain: MASSSVPPATVSAATAGPGPGFGFASKTKKKHFVQQKVKVFRAADPLVGVFLWGVAHSINELSQVPPPVMLLPDDFKASSKIKVNNHLFHRENLPSHFKFKEYCPQVFRNLRDRFGIDDQDYLVSLTRNPPSESEGSDGRFLISYDRTLVIKEVSSEDIADMHSNLSNYHQYIVKCHGNTLLPQFLGMYRVSVDNEDSYMLVMRNMFSHRLPVHRKYDLKGSLVSREASDKEKVKELPTLKDMDFLNKNQKVYIGEEEKKIFLEKLKRDVEFLVQLKIMDYSLLLGIHDIIRGSEPEEEAPVREDESEVDGDCSLTGPPALVGSYGTSPEGIGGYIHSHRPLGPGEFESFIDVYAIRSAEGAPQKEVYFMGLIDILTQYDAKKKAAHAAKTVKHGAGAEISTVHPEQYAKRFLDFITNIFA
- binding [1]: binds
- binding [2]: binds
